Test results from PubChem BioAssay AID2685 (National Center for Advancing Translational Sciences (NCATS), 2010).
The whole screen tested about 320,000 compounds, of which about 2,100 (0.66%) were called active. Inconclusive results, whose numbers are uncertain, are shown with a selection of clear calls. Calls follow the shape of the dose curve; as a rule, active = well fitted inhibition curve with a large enough effect in the signal ratio, with a control signal flat (not every such curve was filed as active); inconclusive = small, poorly fitted or top-dose-only effect, or effect the other way, or a change in a side signal; inactive = flat fitted curve, though single readings scatter; the % refers to the signal ratio. Potencies of inconclusive entries are doubtful fits and often do not repeat.

Test: qHTS Assay for Lipid Storage Modulators in Drosophila S3 Cells
Conditions: BODIPY lipid droplet fluorescence, 18-24 h, cells fed with added oleic acid; lipid storage change, negative = inhibition: at 46.1 µM (top of the series) unless noted
Outline: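 Drosophila S3 cells got compounds at several concentrations plus oleic acid (400 uM solution). Laser-scanning cytometry with 488 nm excitation read lipid droplets at 500-530 nm and cells at 575-640 nm. Percent activity was relative to 20 uM Triacsin C.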
% is scaled to controls: 0 for no effect and ±100 for the full control effect; potency is read from the fitted curve at half-maximal effect.

Structure (SMILES) | lipid storage change, negative = inhibition | Potency
Cc1cc(OCC(=O)NCCCN(C)C)cc(C)c1Br | inconclusive: 9.44% | –
CCc1nccn1CCC(=O)NC1CCCc2c1cnn2-c1ccc(F)cc1F (stereo not drawn) | – | inconclusive: 4.61 µM [activator, single point]
COCc1cc(C)nc(OCC(=O)N/N=C/c2cc(C)n(-c3c(C)cccc3C)c2C)c1C#N | inconclusive: 0.0961% | –
O=C(Cn1cnnn1)NCCc1ccc(Cl)cc1Cl | inconclusive: -0.396% | –
COC(=O)[C@@]1(Cc2ccc(F)cc2)[C@H]2c3cc(C(=O)N(C)C)n(Cc4ccccn4)c3C[C@H]2CN1C(=O)c1ccccc1 | – | inconclusive: 29.1 µM [falling, single point]
O=C(CC1C(=O)NCCN1Cc1c(F)cccc1Cl)NCCCn1ccnc1 (stereo not drawn) | inactive: 8.58% | –
Cc1ccc(C(=O)N2CCN(S(=O)(=O)c3ccccc3C#N)CC2)cc1S(=O)(=O)N1CCOCC1 | inconclusive: -10.2% | –
O=C(CCC(=O)N1CCOc2ccccc21)NCCCc1ccccc1 | inconclusive: 17.5% | –
CCc1cc(C(N)=O)c(NC(=O)c2ccc(OC)cc2)s1 | inconclusive: 15.3% | –
O=C(CC1C(=O)NCCN1Cc1ccc(F)cc1Cl)NCc1ccon1 (stereo not drawn) | – | inconclusive: 6.51 µM [activator, single point]
CC1CC(C)CN(C(=O)COC(=O)CCCN2C(=O)c3cccc4cccc(c34)C2=O)C1 (stereo not drawn) | – | inconclusive: 0.58 µM [falling, full curve]
COc1ccc(C(=O)NNS(=O)(=O)c2ccc(OC)cc2)cc1 | – | inconclusive: 16.4 µM [activator, single point]
COc1ccc(CCNC(=O)c2ccc(Cl)c(S(=O)(=O)N3CCCCCC3)c2)cc1 | inconclusive: 26.3% | –
CCCc1cc(C(=O)Nc2ccc(F)c(Cl)c2)no1 | – | inconclusive: 29.1 µM [activator, single point]
COc1ccc(NC(=O)CN2CCC(NC(=O)C3CCCCC3)CC2)cc1 | inconclusive: 12.2% | –
Cc1ccc(NC(=O)CN(C)C(=O)Cc2ccccc2F)cc1 | – | inconclusive: 6.51 µM [falling, single point]
CN1CC2(C)OC(=O)C(Cl)=C2CC1c1ccccc1 (stereo not drawn) | inconclusive: -7.07% | –
COc1ccc(-c2c[n+]3c(n2-c2c(C)n(C)n(-c4ccccc4)c2=O)CCCCC3)cc1 | inconclusive: -15.7% | –
CC(=O)c1cccc(NC(=S)NC(=O)c2ccc(C)cc2)c1 | inconclusive: -1.12% | –
CCn1c(C(=O)N2CCCC(C(=O)NCCCc3ccccc3)C2)cc2sccc21 (stereo not drawn) | inconclusive: -58.3% | –
CC(C)NC(=O)CSc1ccccc1C(=O)N1CCN(S(=O)(=O)/C=C/c2ccccc2)CC1 | inconclusive: -45.2% | –
O=C(N/N=C/c1ccc(O)cc1)c1[nH]c2ccc(Br)cc2c1-c1ccccc1 | inconclusive: -10.4% | –
CNC(=S)N/N=C/c1c(C)nn(-c2ccc(F)cc2)c1Cl | inconclusive: 29.2% | –
COc1ccc(CNC(=O)CSc2ccsc2[N+](=O)[O-])cc1 | inconclusive: 40.7% | –

Structure (SMILES) | lipid storage change, negative = inhibition | Potency
N=c1ccn2c(n1)OC1C(O)C(CO)OC12 (stereo not drawn) | – | inconclusive: 0.0046 µM [falling, full curve, poor fit]
CCCn1c(-c2ccccc2)nc2c(=O)n(C)c(=O)[nH]c21 | inactive: -1.42% | –
Cc1ccc(CS(=O)Cc2ccc(C(=O)NCCc3ccccc3)o2)cc1 (stereo not drawn) | inconclusive: -6.71% | –
Nc1ccc2nc3c(=O)[nH]c(=S)[nH]c3nc2c1 | – | inconclusive: 9.2 µM [falling, partial curve, poor fit]
CC(C)CC1NC(=O)N(CC(=O)Nc2cccc(Br)c2)C1=O (stereo not drawn) | inconclusive: -15.2% | –
O=C(N/N=C/c1ccco1)c1cc(-c2cccc3ccccc23)n[nH]1 | inactive: -1.16% | –
COc1cc(C(=O)Nc2ccc3c(c2)C(=O)c2ccccc2C3=O)cc(OC)c1OC | inconclusive: 14.5% | –
COc1ccc(-c2c(C)c3ccc(O)cc3oc2=O)cc1OC | inconclusive: 59.2% | –
NC(=O)c1nn(CC(=O)Nc2cccc(S(=O)(=O)N3CCCCCC3)c2)c(=O)c2ccccc12 | inconclusive: -43.5% | –
CCC(C(=O)NCc1ccco1)N(Cc1cccs1)C(=O)CNS(=O)(=O)c1ccccc1 (stereo not drawn) | inconclusive: 102% | –
O=C(COC(=O)[C@@H]1CC(O)CN1S(=O)(=O)c1ccccc1[N+](=O)[O-])c1ccccc1 (stereo partly drawn) | inconclusive: 19.6% | –
CCOc1ccc(NC(=S)N2CCCCCC2)cc1 | inconclusive: -2.92% | –
CCCNC(=O)[C@H](C)NC(=O)c1ccc(Br)cc1 | inconclusive: -67.6% | –
CC(C)(C)C1CCC2(CC1)C(C#N)=C(SCC(=O)Nc1ccccc1)NC(=O)C2C#N (stereo not drawn) | – | inconclusive: 0.366 µM [activator, full curve, poor fit]
Cc1ccc(C)c(NS(=O)(=O)c2cc(C(=O)NCCSC3CCCCC3)ccc2C)c1 | – | inconclusive: 9.2 µM [falling, partial curve]
Cn1c(CNC(=O)CCNC(=O)c2cccc(F)c2)cc(=O)n(C)c1=O | inconclusive: 55.2% | –
CCOc1ccc(N(CC(=O)NC2CCCCC2)S(=O)(=O)c2ccc(C)cc2)cc1 | – | inconclusive: 29.1 µM [activator, single point]
Cc1nc2ccccn2c1C(=O)N/N=C/c1ccc([N+](=O)[O-])cc1 | inconclusive: -3.48% | –
N#C/C(=C/c1ccccc1)C(=O)OCC(=O)Nc1ccccc1[N+](=O)[O-] | inconclusive: 13.6% | –
Cc1ccc(Cn2c(=N)c(C(=O)NC3CCCC3)cc3c(=O)n4ccccc4nc32)cc1 | inconclusive: -13.1% | –
Cc1c(C)n(C(=O)CN2CCC(C(N)=O)CC2)c2ccccc12 | – | inconclusive: 0.0052 µM [falling, full curve, poor fit]
CCOc1cccc(NC(=O)C(Cc2cccs2)c2nn[nH]n2)c1 (stereo not drawn) | inconclusive: 25.2% | –
N#C/C(C(=O)NCc1ccco1)=C1/SC=C(c2ccccc2)N1c1ccccc1 | inconclusive: 14.2% | –
Cc1nnc2n(Cc3ccccc3)c(=O)c3c4c(sc3n12)COC(C(C)C)C4 (stereo not drawn) | inconclusive: -5.7% | –

Twelve entries from above, in CSV form.
Structure (SMILES),"lipid storage change, negative = inhibition",Potency
N=c1ccn2c(n1)OC1C(O)C(CO)OC12 (stereo not drawn),–,"inconclusive: 0.0046 µM [falling, full curve, poor fit]"
Cc1ccc(CS(=O)Cc2ccc(C(=O)NCCc3ccccc3)o2)cc1 (stereo not drawn),inconclusive: -6.71%,–
Nc1ccc2nc3c(=O)[nH]c(=S)[nH]c3nc2c1,–,"inconclusive: 9.2 µM [falling, partial curve, poor fit]"
CC(C)CC1NC(=O)N(CC(=O)Nc2cccc(Br)c2)C1=O (stereo not drawn),inconclusive: -15.2%,–
O=C(N/N=C/c1ccco1)c1cc(-c2cccc3ccccc23)n[nH]1,inactive: -1.16%,–
NC(=O)c1nn(CC(=O)Nc2cccc(S(=O)(=O)N3CCCCCC3)c2)c(=O)c2ccccc12,inconclusive: -43.5%,–
CCOc1ccc(NC(=S)N2CCCCCC2)cc1,inconclusive: -2.92%,–
CCCNC(=O)[C@H](C)NC(=O)c1ccc(Br)cc1,inconclusive: -67.6%,–
Cn1c(CNC(=O)CCNC(=O)c2cccc(F)c2)cc(=O)n(C)c1=O,inconclusive: 55.2%,–
CCOc1ccc(N(CC(=O)NC2CCCCC2)S(=O)(=O)c2ccc(C)cc2)cc1,–,"inconclusive: 29.1 µM [activator, single point]"
Cc1nc2ccccn2c1C(=O)N/N=C/c1ccc([N+](=O)[O-])cc1,inconclusive: -3.48%,–
N#C/C(C(=O)NCc1ccco1)=C1/SC=C(c2ccccc2)N1c1ccccc1,inconclusive: 14.2%,–
